Results: US20110082114A1, “Methods of Treating Aneurysmal Dilatation, Blood Vessel Wall Weakness and Specifically Abdominal Aortic and Thoracic Aneurysm Using Matrix Metalloprotease-2 Inhibitors” (SYMPHONY EVOLUTION, INC., priority 2009, published 2011)
At least one compound was matched to its structure with a doubt left.

Test system: C57/B16 mice, elastase-perfused abdominal aorta
Experiment: Elastase-perfusion mouse model of AAA, aortic histology
Format: in vivo
Settings: 2 weeks after elastase perfusion
Method: The aortas from several mice from each experimental group were perfusion fixed with 10% neutral-buffered formalin, removed, and placed in additional formalin for a minimum of 24 hours prior to processing for paraffin embedding. Following paraffin embedding, aortic specimens were cut into 5 μm sections and mounted on glass slides. Each specimen was stained with hematoxylin and eosin to evaluate inflammatory cell infiltration and Accustain® Elastic Stain kit to assess the degree of elastin degradation. Photomicrographs of serial sections were obtained using an Olympus BX60 light microscope equipped with CV12 video capture camera.
Representative aortas from each group were fixed in formalin following aortic harvest and processed into paraffin blocks. During harvest only the maximally dilated segment of the aorta was taken, and serial sections of the block were made to assure that the most dilated segment of aorta was imaged. These maximally dilated segments were stained with Hematoxylin and Eosin stains as well as an elastin highlighting stain (Verhoff-Von Giesen [VVG]).

C[C@H]1c2cccc(O)c2C(=O)C2=C(O)[C@]3(O)C(=O)C(C(N)=O)=C(O)[C@@H](N(C)C)[C@@H]3[C@@H](O)[C@@H]21 [doxycycline, reference compound]
inflammatory cellular infiltrate, aortic histology (H&E): modest cellular infiltrate
medial elastin, aortic histology (VVG stain): preservation of the medial elastin
